Data reported in patent US6645916B1, “2,4-diamino-1,3,5-triazines, their preparation and their use as herbicides and plant growth regulators” (Hoechst Schering AgrEvo GmbH, priority 1997, dated 2003).
Some results were stated once for a whole list of compounds, not compound by compound.

Tests used:
[1] = test system: harmful plants such as Stellaria media, Matricaria inodora, Sorghum halepense, Digitaria adscendens, Setaria pumila, Avena fatua, Galium aparine, Polygonum …; test: Preemergence action against weeds (greenhouse pot test, visual rating); type: in vivo, monocotyledonous or dicotyledonous weed plants; details: applied pre-emergence at a rate of 1.25 kg of active substance per hectare, 3 to 4 weeks, by comparison with untreated controls
[2] = test system: harmful plants such as Sorghum halepense, Digitaria adscendens, Setaria pumila, Avena fatua, Galium aparine, Polygonum persicaria, Veronica persica, Amaranthus …; test: Post-emergence action against weeds (greenhouse pot test, visual rating); type: in vivo, monocotyledonous and dicotyledonous weeds; details: applied post-emergence at the three-leaf stage at a rate of 1.25 kg or less of active substance per hectare, about 3 to 4 weeks, by comparison with untreated controls
[3] = test system: harmful plants which are typical for rice crops, for example Cyperus monti, Eleocharis acicularis, Echinochloa crus-galli and Sagittaria pygmaea; test: Action on weeds in rice (paddy rice conditions, visual rating); type: in vivo, typical rice weeds (gramineous and broad-leaved); details: poured into the dammed water, different dosages, about three weeks after application, by comparison with untreated controls

Row | Structure (SMILES) | herbicidal activity (visual rating of damage to the plants or negative effect on emergence) [1] | herbicidal activity (visual rating) [2] | herbicidal activity (visual rating of the damage to the plants) [3]
1 | CC(COc1ccc(Cl)cc1)Nc1nc(N)nc(C(C)(C)F)n1 (stereo not drawn) [Example 175] | herbicidal activity | herbicidal activity | very good herbicidal activity
2 | CC(COc1cc(Cl)cc(Cl)c1)Nc1nc(N)nc(C(C)(C)F)n1 (stereo not drawn) [Example 176] | herbicidal activity | herbicidal activity | very good herbicidal activity
3 | CC(COc1cc(Cl)cc(Br)c1)Nc1nc(N)nc(C(C)(C)F)n1 (stereo not drawn) [Example 178a] | herbicidal activity | herbicidal activity | very good herbicidal activity
4 | CC(COc1cccc(Cl)c1Cl)Nc1nc(N)nc(C(C)(C)F)n1 (stereo not drawn) [Example 180] | herbicidal activity | herbicidal activity | very good herbicidal activity
5 | CC(COc1cc(Cl)ccc1Cl)Nc1nc(N)nc(C(C)(C)F)n1 (stereo not drawn) [Example 182] | herbicidal activity | herbicidal activity | very good herbicidal activity
6 | CC(COc1cc(F)c(F)c(F)c1)Nc1nc(N)nc(C(C)(C)F)n1 (stereo not drawn) [Example 186] | herbicidal activity | herbicidal activity | very good herbicidal activity
7 | Cc1c(F)cccc1OCC(C)Nc1nc(N)nc(C(C)(C)F)n1 (stereo not drawn) [Example 187a] | herbicidal activity | herbicidal activity | very good herbicidal activity
8 | Cc1ccc(F)cc1OCC(C)Nc1nc(N)nc(C(C)(C)F)n1 (stereo not drawn) [Example 188a] | herbicidal activity | herbicidal activity | very good herbicidal activity
9 | CC(COc1cc(F)ccc1Cl)Nc1nc(N)nc(C(C)(C)F)n1 (stereo not drawn) [Example 189] | herbicidal activity | herbicidal activity | very good herbicidal activity
10 | CC(COc1ccc(F)c(Cl)c1)Nc1nc(N)nc(C(C)(C)F)n1 (stereo not drawn) [Example 193] | herbicidal activity | herbicidal activity | very good herbicidal activity
11 | COc1cc(F)cc(OCC(C)Nc2nc(N)nc(C(C)(C)F)n2)c1 (stereo not drawn) [Example 195] | herbicidal activity | herbicidal activity | very good herbicidal activity
12 | CCOc1cccc(OCC(C)Nc2nc(N)nc(C(C)(C)F)n2)c1 (stereo not drawn) [Example 200] | herbicidal activity | herbicidal activity | very good herbicidal activity
13 | CCCCOc1cccc(OCC(C)Nc2nc(N)nc(C(C)(C)F)n2)c1 (stereo not drawn) [Example 202] | herbicidal activity | herbicidal activity | very good herbicidal activity
14 | CC(COc1cccc(Oc2ccccc2)c1)Nc1nc(N)nc(C(C)(C)F)n1 (stereo not drawn) [Example 203] | herbicidal activity | herbicidal activity | very good herbicidal activity
15 | CCCOc1cc(OCCC)cc(OCC(C)Nc2nc(N)nc(C(C)(C)F)n2)c1 (stereo not drawn) [Example 205] | herbicidal activity | herbicidal activity | very good herbicidal activity
16 | COc1cc(C)cc(OCC(C)Nc2nc(N)nc(C(C)(C)F)n2)c1 (stereo not drawn) [Example 208] | herbicidal activity | herbicidal activity | very good herbicidal activity
17 | CCOc1cc(C)cc(OCC(C)Nc2nc(N)nc(C(C)(C)F)n2)c1 (stereo not drawn) [Example 209] | herbicidal activity | herbicidal activity | very good herbicidal activity

Row | Structure (SMILES) | herbicidal activity (visual rating of damage to the plants or negative effect on emergence) [1] | herbicidal activity (visual rating) [2] | herbicidal activity (visual rating of the damage to the plants) [3]
18 | COc1cc(Cl)cc(OCC(C)Nc2nc(N)nc(C(C)(C)F)n2)c1 (stereo not drawn) [Example 213] | herbicidal activity | herbicidal activity | very good herbicidal activity
19 | COc1cc(Br)cc(OCC(C)Nc2nc(N)nc(C(C)(C)F)n2)c1 (stereo not drawn) [Example 218] | herbicidal activity | herbicidal activity | very good herbicidal activity
20 | CC(COc1cc(Cl)cc(C(F)(F)F)c1)Nc1nc(N)nc(C(C)(C)F)n1 (stereo not drawn) [Example 222] | herbicidal activity | herbicidal activity | very good herbicidal activity
21 | COc1cc(OCC(C)Nc2nc(N)nc(C(C)(C)F)n2)cc(C(F)(F)F)c1 (stereo not drawn) [Example 225] | herbicidal activity | herbicidal activity | very good herbicidal activity
22 | CC(COc1cccc(OC(F)(F)F)c1)Nc1nc(N)nc(C(C)(C)F)n1 (stereo not drawn) [Example 234] | herbicidal activity | herbicidal activity | very good herbicidal activity
23 | CC(COc1cccc(OC(F)(F)C(F)F)c1)Nc1nc(N)nc(C(C)(C)F)n1 (stereo not drawn) [Example 243] | herbicidal activity | herbicidal activity | very good herbicidal activity
24 | C#Cc1cccc(OCC(CC)Nc2nc(N)nc(C(C)(C)F)n2)c1 (stereo not drawn) [Example 249] | herbicidal activity | herbicidal activity | very good herbicidal activity
25 | CCC(COc1cccc(I)c1)Nc1nc(N)nc(C(C)(C)F)n1 (stereo not drawn) [Example 270] | herbicidal activity | herbicidal activity | very good herbicidal activity
26 | CCC(COc1cccc(Br)c1)Nc1nc(N)nc(C(C)(C)F)n1 (stereo not drawn) [Example 271] | herbicidal activity | herbicidal activity | very good herbicidal activity
27 | CCC(COc1cccc(Cl)c1)Nc1nc(N)nc(C(C)(C)F)n1 (stereo not drawn) [Example 272] | herbicidal activity | herbicidal activity | very good herbicidal activity
28 | CCC(COc1cc(C)cc(Br)c1)Nc1nc(N)nc(C(C)(C)F)n1 (stereo not drawn) [Example 274] | herbicidal activity | herbicidal activity | very good herbicidal activity
29 | CCC(COc1cc(C)cc(Cl)c1)Nc1nc(N)nc(C(C)(C)F)n1 (stereo not drawn) [Example 275] | herbicidal activity | herbicidal activity | very good herbicidal activity
30 | CCC(COc1cc(Cl)cc(Cl)c1)Nc1nc(N)nc(C(C)(C)F)n1 (stereo not drawn) [Example 295] | herbicidal activity | herbicidal activity | very good herbicidal activity
31 | CCC(COc1cc(Cl)cc(Br)c1)Nc1nc(N)nc(C(C)(C)F)n1 (stereo not drawn) [Example 297a] | herbicidal activity | herbicidal activity | very good herbicidal activity
32 | CCC(COc1cccc(Cl)c1Cl)Nc1nc(N)nc(C(C)(C)F)n1 (stereo not drawn) [Example 299] | herbicidal activity | herbicidal activity | very good herbicidal activity
33 | CCC(COc1cc(Cl)ccc1Cl)Nc1nc(N)nc(C(C)(C)F)n1 (stereo not drawn) [Example 301] | herbicidal activity | herbicidal activity | very good herbicidal activity
